Values from PubChem BioAssay AID743454 (Peter MacCallum Cancer Centre, 2014).
Screen: 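Genes whose loss kills vorinostat-resistant colon cancer cells under vorinostat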 (primary screen). System: human HCT116-VR colon cancer cells, selected for vorinostat resistance. Reagents: siRNA pool against human genes, 40 nM siRNA pool. Duration: vorinostat for 24 h, read-out about 72 h after transfection. Treatment: vorinostat at 2.5 µM final. Measurement: 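Cell viability by CellTiter-Fluor and caspase 3/7 activity by luminescence, each scaled to mock wells per plate, duplicates averaged, then robust z-scored over all plates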. Direction: viability robust z-score: higher = more viable cells than screen typical; caspase robust z-score: higher = more caspase 3/7 activity than screen typical. Rule for the call: 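a knock-down is a hit when classed RV1 or RV2 for lowered viability, or CA1 or CA2 for caspase activation; those lethal without drug were dropped; hits were retested singly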.
Shown is one part, drawn at random, of about 18,000 reagents. Of all reagents, 450 (2.5%) were called active. 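Single biological run; no consistent viability z cut-off exists, so the class columns, not z-scores, define the calls.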 Unmarked entries are inactive. Reagent sequences are not shown.

Gene | viability hit class | caspase hit class | viability robust z-score | caspase robust z-score
CAPZA3 (GeneID 93661) | no change | no change | 0.41 | -0.02
CABP1 (GeneID 9478) | no change | no change | -0.22 | -0.66
MDC1 (GeneID 9656) | no change | no change | 0.87 | 0.75
IZUMO4 (GeneID 113177) | no change | no change | -1.36 | 1.42
PELI3 (GeneID 246330) | no change | no change | 0.2 | 0.16
OGDHL (GeneID 55753) | no change | no change | -1.56 | 1.08
SNAPC1 (GeneID 6617) | no change | no change | -1.26 | -0.42
NAP1L1 (GeneID 4673) | no change | no change | 0.82 | 0.12
SLC66A1 (GeneID 54896) | no change | no change | -0.85 | -0.02
OIT3 (GeneID 170392) | no change | no change | 0.86 | 0.15
UBE2V1 (GeneID 7335) | no change | no change | -0.55 | -0.8
ZFTRAF1 (GeneID 50626) | no change | no change | -0.97 | 0.58
DENND11 (GeneID 57189) | no change | no change | 0.24 | -0.89
RNF115 (GeneID 27246) | no change | no change | 1.01 | -0.18
CLDN2 (GeneID 9075) | no change | no change | -0.44 | 0.46
EMX1 (GeneID 2016) | no change | no change | 0.07 | -0.59
DCAF12L1 (GeneID 139170) | no change | no change | 0.81 | 0.19
WNT2 (GeneID 7472) | no change | no change | 0.59 | 0.26
SSX7 (GeneID 280658) | no change | no change | 0.38 | -0.84
ATOX1 (GeneID 475) | no change | no change | -1.07 | 2.78
DTX3L (GeneID 151636) | no change | no change | -2.14 | 2.01
TMPRSS15 (GeneID 5651) | no change | no change | -0.84 | -0.45
SIK2 (GeneID 23235) | no change | no change | -0.92 | 0.98

Entries above whose gene name begins with C or c (3):
Gene | viability hit class | caspase hit class | viability robust z-score | caspase robust z-score
CAPZA3 (GeneID 93661) | no change | no change | 0.41 | -0.02
CABP1 (GeneID 9478) | no change | no change | -0.22 | -0.66
CLDN2 (GeneID 9075) | no change | no change | -0.44 | 0.46
